# About 4,500 (1.3%) of roughly 340,000 compounds were called active. This list was built around the results that the source calls inconclusive (neither active nor inactive); the mix of calls is not that of the screen. Calls come from the whole dose curve; as a rule, active = well fitted inhibition curve with a large enough effect; inconclusive = small, poorly fitted or top-dose-only effect, or another doubt; inactive = no such curve, though single readings can be large or run the other way. Potencies beside an inconclusive call are fits to weak or partial responses and may not hold up.
# Target: DNA polymerase beta (Homo sapiens) (UniProt P06746)
# Experiment: qHTS Assay for Inhibitors of DNA Polymerase Beta
# Details: Pol beta primer extension/strand displacement, fluorescence kinetic; activity change, negative = inhibition: at 114 µM (top of the series)
# Outline: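 Homogeneous kinetic assay of primer extension and strand displacement by 10 nM Pol beta, preincubated 15 min at room temperature with compound before 50 nM substrate (final) was added. Read at 0 and 10 min; four-parameter Hill fit.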
# % is set by controls: 0 for no effect and ±100 for the full control effect; potency is the fitted concentration of half-maximal effect.
SMILES,"activity change, negative = inhibition",Potency
CCN=C1S/C(=C\c2cn(C(C)=O)nc2-c2ccccc2)C(=O)N1CC,inactive: 9.39%,
O=S(=O)(NCc1ccccc1)c1ccc(Cl)cc1,inactive: 8.6%,
Cc1cc(C)cc(OCc2nnc(SCC(=O)N3CCCCC3)o2)c1,inactive: 89%,
O=C(Nc1ccc2c(c1)C(=O)NC2=O)c1cccc(C(F)(F)F)c1,,active: 79.4 µM
COC(=O)c1cc(COC(=O)c2ccc(OC)c(S(=O)(=O)N3CCCC3)c2)oc1C,,"inconclusive: 89.1 µM [inhibitor, single point]"
O=C(CSc1nc2sc3c(c2c(=O)n1-c1ccccc1)CCCC3)N/N=C/c1ccc(C(=O)O)cc1,inconclusive: -83.2% [inhibitor],
COc1cccc(OC)c1-c1nnc(-c2cn(C)c3ccccc23)o1,,"inconclusive: 89.1 µM [inhibitor, single point]"
COc1cc(OC)c(C(=O)OCC(=O)N2CCOCC2)cc1OC,inactive: 17.3%,
COc1cccc(C(=O)N2CCN(C(=O)c3cccc4ccccc34)CC2)c1OC,,"inconclusive: 100 µM [inhibitor, single point]"
CC(C)(C)c1csc(NC(=O)Cn2c(=O)oc3ccccc32)n1,,"inconclusive: 89.1 µM [inhibitor, single point]"
O=c1oc2ccccc2nc1/C=C(\O)c1ccccc1,inactive: 16.8%,
CCOc1ccc(Cc2nnc(N)s2)cc1OCC,,"inconclusive: 89.1 µM [inhibitor, single point]"
COc1ccc(N2C(=O)CS(=O)(=O)C23C(=O)N(Cc2ccc(F)cc2)c2ccc(C)cc23)cc1 (stereo unspecified),inactive: -15.7%,
CC(CNC(=O)CN1C(=O)COc2ccc(S(=O)(=O)N3CCCCCC3)cc21)c1ccccc1 (stereo unspecified),inactive: -0.147%,
COc1ccc(CNC(=O)Cc2cccs2)cc1,,"inconclusive: 17.8 µM [inhibitor, full curve, poor fit]"
COC(=O)c1ccccc1NC(=O)C1CCCN(c2nnc(-n3cccc3)s2)C1 (stereo unspecified),,"inconclusive: 17.8 µM [inhibitor, full curve]"
CCC(=O)c1c[nH]c(C(=O)NCCCN2CCOCC2)c1,,"inconclusive: 0.158 µM [inhibitor, full curve, poor fit]"
CN(C)/C=C1\C=C2C(=O)c3ccccc3N2C1=O,,"inconclusive: 35.5 µM [inhibitor, single point]"
CCOC(=O)C1CCC(CN(Cc2ccc(Cl)cc2)S(=O)(=O)c2cc(Cl)cc(Cl)c2)CC1 (stereo unspecified),,"inconclusive: 89.1 µM [inhibitor, single point]"
COC(=O)c1cc(C(=O)Nc2ccc(S(N)(=O)=O)cc2)cc([N+](=O)[O-])c1,,"inconclusive: 5.62 µM [inhibitor, partial curve, poor fit]"
CCOc1ccccc1NC(=O)Cn1nnc(C(=O)NCc2ccco2)c1N,,"inconclusive: 89.1 µM [inhibitor, single point]"
CCC(=O)Nc1ccc(C2=Nn3c(nnc3C(C)C)SC2)cc1,,"inconclusive: 11.2 µM [inhibitor, full curve, poor fit]"
Cc1ccc(/C=C2\SC(N3CCN(C(c4ccccc4)c4ccccc4)CC3)=NC2=O)o1,,active: 39.8 µM
CN1CCc2c(sc(NC(=O)c3cc4cc([N+](=O)[O-])ccc4s3)c2C(N)=O)C1,,active: 22.4 µM

# Three structures already listed, ordered by length of the SMILES, smallest number first:
SMILES,"activity change, negative = inhibition",Potency
O=S(=O)(NCc1ccccc1)c1ccc(Cl)cc1,inactive: 8.6%,
CC(C)(C)c1csc(NC(=O)Cn2c(=O)oc3ccccc32)n1,,"inconclusive: 89.1 µM [inhibitor, single point]"
CCN=C1S/C(=C\c2cn(C(C)=O)nc2-c2ccccc2)C(=O)N1CC,inactive: 9.39%,

# Remaining list, next part:

SMILES,"activity change, negative = inhibition",Potency
CCC(=O)Nc1cccc(C2=NOC3(C2)C[C@@H](C(N)=O)N(C(=O)CC)C3)c1 (stereo partly specified),,"inconclusive: 89.1 µM [inhibitor, single point]"
CCOC(=O)C1CCCN(C2CC(=O)N(c3ccc(NC(C)=O)cc3)C2=O)C1 (stereo unspecified),,"inconclusive: 100 µM [inhibitor, single point]"
CCOc1ccc(CNC(=O)c2cnc3sc(N4CCOCC4)nn3c2=O)cc1OC,inactive: 36.7%,
O=c1cc2c(=O)oc3cc(O)c(O)oc3c2c(O)c1O,,active: 0.355 µM
CCN(CC)CCNC(=O)CSc1nc2nc(C)c(Cc3ccccc3)c(C)n2n1,inactive: 17.6%,
Cc1[nH]c2ccccc2c1C(c1ccccc1)c1ccc(Cl)s1 (stereo unspecified),inactive: -7.69%,
O=C(CCCl)Nc1ccc(S(=O)(=O)NCc2ccco2)cc1,inconclusive: -38.3% [inhibitor],
CC(C)C[C@H](NC(=O)OC(C)(C)C)c1nnc(SCc2cccc(F)c2)o1,,"inconclusive: 20 µM [inhibitor, full curve, poor fit]"
CC(C)Cn1c(N)c(C(=O)COC(=O)COc2cccc(C(F)(F)F)c2)c(=O)n(C)c1=O,,"inconclusive: 3.98 µM [inhibitor, single point]"
Cc1cc(C)n(CC(=O)NC2C(=O)N3C(C(=O)O)=C(CSc4nnc(C)s4)CSC23)n1 (stereo unspecified),,"inconclusive: 17.8 µM [inhibitor, full curve]"
CCOc1ccc(C(=O)OCC(=O)NCc2ccco2)cc1OCC,,active: 20 µM
Cn1c(=O)c2[nH]c(=O)cnc2n(C)c1=S,,"inconclusive: 5.62 µM [inhibitor, full curve]"
Cc1cc(-n2c(C)cc(C(=O)COc3ccc4ccc(=O)oc4c3)c2C)no1,,"inconclusive: 28.2 µM [inhibitor, single point]"
CC(OC(=O)CCc1c[nH]c2ccccc12)C(=O)c1ccccc1 (stereo unspecified),,"inconclusive: 0.562 µM [inhibitor, full curve]"
CCN(CC)C(=S)Nc1ccc2nc3n(c(=O)c2c1)CCCCC3,,"inconclusive: 79.4 µM [inhibitor, single point]"
CC(C)c1ccc(Nc2nnns2)cc1,inactive: 3.86%,
C#CCN1C(=O)C(O)(CC(=O)/C=C/c2ccco2)c2ccccc21 (stereo unspecified),,"inconclusive: 35.5 µM [inhibitor, full curve]"
Cc1ccc2nc(CSc3nc(C)cc(C)c3C#N)[nH]c2c1,,"inconclusive: 0.141 µM [inhibitor, full curve, poor fit]"
O=S(=O)(c1ccc(Oc2ccc(Br)cc2F)nc1)N1CCCCC1,,"inconclusive: 4.47 µM [inhibitor, single point]"
COc1ccc(Cn2cccc(NC(=O)Nc3ccc(C#N)cc3)c2=O)cc1,,"inconclusive: 1.12 µM [inhibitor, full curve, poor fit]"
Cc1cccc(Nc2nc(N)nc(CN3CCN(c4ccc(F)cc4)CC3)n2)c1,,"inconclusive: 89.1 µM [inhibitor, single point]"
CCOc1ccccc1NC(=O)c1ccc2nc[nH]c2c1,,"inconclusive: 17.8 µM [inhibitor, full curve, poor fit]"
CCCCN1C2=C(C(=O)CC(C)(C)C2)C(c2ccccc2)C2=C1c1ccccc1C2=O (stereo unspecified),,"inconclusive: 89.1 µM [inhibitor, partial curve]"
COC(=O)c1ccc(NC(=O)CS(=O)(=O)c2ccccc2)cc1,,"inconclusive: 20 µM [inhibitor, partial curve]"

# By substructure: the compounds so far containing a tert-butyl group.
SMILES,"activity change, negative = inhibition",Potency
CC(C)(C)c1csc(NC(=O)Cn2c(=O)oc3ccccc32)n1,,"inconclusive: 89.1 µM [inhibitor, single point]"
CC(C)C[C@H](NC(=O)OC(C)(C)C)c1nnc(SCc2cccc(F)c2)o1,,"inconclusive: 20 µM [inhibitor, full curve, poor fit]"

# Continuation:

SMILES,"activity change, negative = inhibition",Potency
O=C(Nc1ccc2oc(-c3cccnc3)nc2c1)c1ccc(-c2cccc(Cl)c2)o1,inconclusive: -56.3% [inhibitor],
COc1ccc(N/N=C(/C)c2cnnc(-c3ccccc3)n2)cc1,,"inconclusive: 3.16 µM [inhibitor, single point]"
COc1ccc(S(=O)(=O)c2c(Nc3c(C)cccc3C)sc(C(=O)c3ccc4c(c3)OCO4)c2N)cc1,inactive: 26.9%,
COc1ccc(NC(=S)N2CCN(S(=O)(=O)c3ccc(C)cc3)CC2)cc1,,"inconclusive: 89.1 µM [inhibitor, single point]"
CN1CCN(C(=O)/C=C/c2ccc(C#N)cc2)CC1,inactive: -2.41%,
O=C1ON=C(c2ccccc2)/C1=C/c1ccc(O)c(O)c1,inactive: -17.2%,
CCN(C(=O)CSc1nnc(-c2cc(OC)c(OC)c(OC)c2)o1)c1ccccc1,,active: 10 µM
COc1ccc(OC)c(NC(=O)Cn2c(=O)c3cccn3c3ccccc32)c1,,"inconclusive: 22.4 µM [inhibitor, full curve]"
COc1ccc2[nH]c3c(c2c1)CCn1c-3nc2ccccc2c1=O,,"inconclusive: 79.4 µM [inhibitor, single point]"
O=C(CCCN1C(=O)c2ccccc2C1=O)NCc1ccc(F)cc1,,"inconclusive: 79.4 µM [inhibitor, single point]"
Cc1ccc(C)c(NC(=O)c2cc[n+](C)cc2)c1,inactive: 45.1%,
OC1CCCN(Cc2ccc3ccc4cccc5ccc2c3c45)C1 (stereo unspecified),,active: 39.8 µM
CCOc1ccc(C(=O)c2cn(CC(=O)Nc3ccc4c(c3)OCO4)c3ccc(OC)cc3c2=O)cc1,,"inconclusive: 20 µM [inhibitor, full curve]"
O=C(N/N=C(\c1ccccc1)c1cccnc1)c1cc(O)ccc1O,,"inconclusive: 50.1 µM [inhibitor, single point]"
COc1cccc(C(=O)Nc2cc3c(cc2C(C)=O)OCCO3)c1,,"inconclusive: 70.8 µM [inhibitor, single point]"
CCOC(=O)c1cnc(SSc2ncc(C(=O)OCC)c(N)n2)nc1N,inactive: 12.7%,
CCOc1c(Cl)cc(/C=N/NC(N)=S)cc1OC,,"inconclusive: 3.98 µM [inhibitor, single point]"
COCCN(Cc1nc(-c2ccc(-c3ccccc3)cc2)oc1C)C(C)C,inactive: 38.7%,
CCOc1ccccc1NC1(c2ccccc2)C(=O)c2ccccc2C1=O,inactive: 27.3%,
CCN(CC)c1ccc(/C=C2\CCC(/C=N/NC(=O)c3ccc(=O)n(C)c3)=C2N2CCOCC2)cc1,inactive: -10.9%,
O=C(c1ccccc1Sc1ccccc1[N+](=O)[O-])N1CCCCC1,inactive: 5.58%,
CC(C)c1ccc(Nc2nnc(SCC(=O)c3nnc(-c4ccccc4)o3)s2)cc1,,active: 39.8 µM
CC1=C(C(=O)Nc2cccnc2)C(c2cccc(F)c2)n2nc(SCc3ccccc3F)nc2N1 (stereo unspecified),,"inconclusive: 31.6 µM [inhibitor, partial curve]"
